Data: patent US6995138B2 (priority 2002, dated 2006)

Experiment: general procedure: peptide synthesis; adipic acid bis-HOAT ester, collidine
Conditions: late stage modification step, TFA salt

29-N-(2-Aminoethyl)aminomethyl Vancomycin Tetra-TFA Salt
crude HPLC purity: 78%
